Results: patent publication US8143249B2 (Gilead Sciences, Inc., priority 2005, dated 2012)
Entries after “also recorded” stand apart in the source; their conditions may differ. Some entries share one result that the patent states for a list of compounds. For at least one compound, name, drawing or mass did not settle the structure.

Test: Oral pharmacokinetics/bioavailability of prodrugs vs parent (compound 1) in rats, plasma LC/MS/MS
Assay type: in vivo, Sprague Dawley rats
Details: result in words
Method: The following studies were conducted in order to compare the pharmacokinetics of the parent A2B adenosine receptor antagonist and its corresponding prodrug. The parent compound chosen was the compound of formula A in which R^1 is n-propyl, R^2 is ethyl, R^3 is hydrogen, and R^4 is 3-trifluoromethylphenyl; that is:
The studies were carried out in Sprague Dawley rats. The test compounds were administered orally by gavage to groups of three rats using a single oral dose of the test compound at 2 and 30 mg/kg. All oral doses were prepared either as a suspension in DMSO/ethanol/PEG300/0.1% N-methyl-D-glucamine or as a suspension in 0.5% methylcellulose in water. Blood samples were obtained serially from each rat at 0, 5, 15, 30 min, and then 1, 1.5, 2, 4, 6, 8, and 24 hrs post-dose.
Concentrations of compound 1 and/or the corresponding prodrug in rat plasma were determined by a HPLC tandem mass spectrometric (LC/MS/MS) method. Briefly, 0.1 mL of plasma sample was treated with 0.5 mL of acetonitrile:methanol (9:1, v/v) mixture containing 25 ng of compound 1 having deuterated ethyl at the 3-position in place of ethyl. (Internal Standard, I.S.) to precipitate the protein. The mixture was filtered through a 96-well filter and filtrate was collected and evaporated to dryness on a 96-well plate evaporator. The residue was then reconstituted with 400 μL 20% methanol and subjected to LC/MS/MS analysis. Quantification of compound 1 was achieved by mass spectrometry using Multiple Reaction Monitoring (MRM) mode, monitoring the transitions at m/z 447.1>159.1 for compound 1 and 452.1>159.1 for I.S. The quantification limit of the assay was 0.38 ng/mL for the analysis of the oral dose samples and 10 ng/mL during the analysis of the intravenous dose samples using 0.1 mL of plasma.
Non-compartmental pharmacokinetic parameters were determined using a commercial program WinNonLin Professional, Version 4.1 (Pharsight, Mountain View, Calif.). Plasma concentration at below level of detection was assumed to be zero for the calculation of means and pharmacokinetic parameters.
For oral administration, the maximum concentration (Cmax) and time to reach Cmax (Tmax), AUC(0-1), AUC(0-8) and bioavailability (% F) were determined. Oral bioavailability was determined from the ratio of dose-adjusted AUC(0-8) of the respective oral dose and the mean AUC(0-8) values of the 0.1 and 0.5 mg/kg intravenous doses.
The results are presented below in tabular form. The table provides results obtained by using a suspension of the test compound in a suspension in DMSO/ethanol/PEG300/0.1% N-methyl-D-glucamine in rats.

Compound	plasma levels of parent compound 1 following oral dosing, compared with oral dosing of the parent itself	prodrug seen in plasma unmetabolized
CCCn1c(=O)c2c(nc(-c3cnn(Cc4cccc(C(F)(F)F)c4)c3)n2COC(=O)C(C)(C)C)n(CC)c1=O [Compound 4, [3-ethyl-2,6-dioxo-1-propyl-8-(1-{[3-(trifluoromethyl)phenyl]methyl}pyrazol-4-yl)-1,3,7-trihydropurin-7-yl]methyl-2,2-dimethylpropanoate]	much higher plasma levels	no trace of the prodrug is seen in plasma
CCCC(=O)OCn1c(-c2cnn(Cc3cccc(C(F)(F)F)c3)c2)nc2c1c(=O)n(CCC)c(=O)n2CC [Compound 2, [3-ethyl-2,6-dioxo-1-propyl-8-(1-{[3-(trifluoromethyl)phenyl]methyl}pyrazol-4-yl)-1,3,7-trihydropurin-7-yl]methyl butanoate]	much higher plasma levels	no trace of the prodrug is seen in plasma
CCCn1c(=O)c2c(nc(-c3cnn(Cc4cccc(C(F)(F)F)c4)c3)n2COP(=O)(O)O)n(CC)c1=O [Compound 6, [3-ethyl-2,6-dioxo-1-propyl-8-(1-{[3-(trifluoromethyl)phenyl]methyl}-pyrazol-4-yl)(1,3,7-trihydropurin-7-yl)]methyl dihydrogen phosphate]	much higher plasma levels; also recorded: lower than those obtained by oral dosing of the parent compound	no trace of the prodrug is seen in plasma
CCCn1c(=O)c2c(nc(-c3cnn(Cc4cccc(C(F)(F)F)c4)c3)n2COC(=O)N(C)CCN(C)C)n(CC)c1=O [Compound 5]		no trace of the prodrug is seen in plasma
CCCn1c(=O)c2c(nc(-c3cnn(Cc4cccc(C(F)(F)F)c4)c3)n2COC(C)=O)n(CC)c1=O [Compound 3, [3-ethyl-2,6-dioxo-1-propyl-8-(1-{[3-(trifluoromethyl)phenyl]methyl}pyrazol-4-yl)-1,3,7-trihydropurin-7-yl]methyl acetate]	much higher plasma levels	no trace of the prodrug is seen in plasma

Same assay, conditions: result in words, listed as compound 5

Compound	plasma levels of parent compound 1 following oral dosing, compared with oral dosing of the parent itself
CCCn1c(=O)c2c(nc(-c3cnn(Cc4cccc(C(F)(F)F)c4)c3)n2COC(=O)N(C)CCN(C)C)n(CC)c1=O [Compound 5]	much higher plasma levels
